Publication PMC8955377, “Greener Synthesis of Antiproliferative Furoxans via Multicomponent Reactions” (Molecules, 2022)

Legend:
[1] = NO release in physiological solution, Griess assay; conditions: 100 μM, pH 7.4 PBS/MeOH 50/50, 37 °C, 0.5 mM L-cysteine
LNCaP cells = test: Antiproliferative activity, sulforhodamine B assay, LNCaP prostate cancer cells; format: cell-based, human; conditions: GI50 (HaCaT)/GI50 (LNCaP)
Experimental: (§1) In vitro antiproliferative activity of the compounds was determined in cells derived from bladder cancer (T24) and prostate cancer (LNCaP). The cells were incubated in the presence of the compounds for 48 h. The antiproliferative activity was determined using the sulforhodamine B assay. The results were expressed as GI50, which is the drug concentration resulting in a 50% reduction of cellular net growth when compared with the values of untreated control cells. The standard anticancer drug cisplatin was used as a positive control, and furoxan 3 and 11a were also included as ⋅NO donor reference compounds. The results are summarized in Table 2 for the Ugi product 7a, Ugi-Fx (8a) and 8b–g Ugi-furoxan derivatives, and GBB product 10 and 12a–e GBB-furoxan derivatives.
(§2) The T24 cells were grown in McCoy’s 5A (Biological Industries) supplemented with 10% FBS (Capricorn Scientific). The cells were passaged twice per week, and the culture medium was changed with the same frequency. The LNCaP cells were maintained in RPMI media (Biological Industries) supplemented with 10% FBS (Capricorn Scientific) and 10% of its own conditioned medium (complete media). The cells were passaged once per week, and the medium was changed with the same frequency. The HaCaT cells (immortalized human keratinocytes) were cultured in Dulbecco’s modified Eagle medium (Biological Industries) supplemented with 10% FBS (Capricorn Scientific). The cells were passaged twice per week, and the medium was changed with the same frequency. The cell cultures were maintained under a humidified 5% CO2 atmosphere at 37 °C.
(§3) For viability assays, cells were treated with a 0.25% Trypsin–0.05% EDTA solution and plated in 96-well plates in complete medium the day before the experiment. The cells were seeded in a 96-well plate at densities of 8 × 10^3 cells per well for T24 cells, 12.5 × 10^3 cells per well for LNCaP cells, and 10 × 10^3 cells per well for HaCaT cells. The cultures were allowed to attach for 24 h in a humidified 5% CO2 atmosphere at 37 °C. Then, the cells were treated with increasing concentrations of the compounds (0.4–100.0 µM) prepared in complete medium using stock solutions in DMSO and were kept for 48 h in a CO2 incubator. Wells with only media or 0.5% DMSO were added as controls. The antiproliferative activity of the compounds was assayed using the SRB method in at least three independent experiments.

T24 cells = test: Antiproliferative activity, sulforhodamine B assay, T24 bladder cancer cells; format: cell-based, human; conditions: GI50 (HaCaT)/GI50 (T24)
Experimental: as §1, §2, §3

## O=C(O)c1cccc(Oc2no[n+]([O-])c2S(=O)(=O)c2ccccc2)c1 [compound 3, reference compound]
[1]; 1 h
  % NO2– (mol/mol) with L-Cys, 1h incubation: 31.81 (± 1.21) % (mol/mol)
[1]; 3 h
  % NO2– (mol/mol) with L-Cys, 3 h incubation: 31.83 (± 1.15) % (mol/mol)
LNCaP cells
  SI LNCaP: 0.4
T24 cells
  SI T24: 1.7
